In PMC6667648 (Frontiers in Microbiology, 2019):
Values joined by “and” are separate entries in the source; they are usually repeats but may differ in a detail not shown here. Equal values may be shown once.

Assays:
C. albicans Y-6359 = test: microbe, parasite or virus in culture; format: cell-based; conditions: Candida albicans, Y6359, 24-h incubation, mean of 3 replicates from 2 independent experiments, read-out: Minimum Inhibitory Concentration (MIC)
Procedure: (§1) Strains were obtained from American Type Culture Collection (ATCC, Manassas, VA) or the clinical isolate collection at Trideum Biosciences (Frederick, MD, USA). Bioluminescence strains of P. aeruginosa 19660, transfected with the Xen5 luciferase gene, and S. aureus ATCC® 49525™ (Wright), transfected with the Xen36 luciferase gene, were obtained from Perkin Elmer (Hopkinton, MA).
(§2) A single colony was aseptically picked from an agar overlay and released in 25–30 mL of pre-warmed trypticase soy broth in a culture flask. Each culture was incubated overnight in a 37°C incubator. […] Pathogen growth was measured by absorbance at 600 nm. Four replicas were included for each test agent concentration. […]

C. albicans Y-326 = test: microbe, parasite or virus in culture; format: cell-based; conditions: Candida albicans, Y326, 24-h incubation, mean of 3 replicates from 2 independent experiments, read-out: Minimum Inhibitory Concentration (MIC)
Procedure: as §1, §2

MIC (C. albicans Y-6359): 1 µM and 1.08 µg/mL
MIC (C. albicans Y-326): 1 µM and 1.08 µg/mL
Structure (SMILES): C[C@@H]1[C@H](O)[C@@H](C)/C=C/C=C/C=C/C=C/C=C/C=C/C=C/[C@H](O[C@@H]2O[C@H](C)[C@@H](O)[C@H](N)[C@@H]2O)C[C@@H]2O[C@](O)(C[C@@H](O)C[C@@H](O)[C@H](O)CC[C@@H](O)C[C@@H](O)CC(=O)O[C@H]1C)C[C@H](O)[C@H]2C(=O)O [Amphotericin b, amphotericin B]
